# Values from PubChem BioAssay AID1508597 (Cure First, 2020).
# Assay: 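Genes whose silencing sensitises or protects ovarian cancer cells against rucaparib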 (primary screen)
# Cell system: human ovarian carcinoma lines grown from tumours: OCI-P5x (papillary serous) and OCI-C5x (clear cell)
# Reagents: siRNA pool against human genes, 1.25 pmol siRNA per well
# Duration: 72 h or 96 h, depending on the cell culture
# Challenge: rucaparib 20 µM (about IC30) or vehicle, present until read-out
# Rucaparib or vehicle: Rucaparib
# Cell line: OCI-C5x (clear cell)
# Read-out: 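ATP luminescence measured at 72 or 96 h according to the culture, then normalised and expressed as percent viability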
# Scale: viability, normalised: higher = more viable cells remaining
# Call rule: 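Active when normalised viability falls below 80 percent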
# Meaning of the calls: active = viability under 80%; inactive = viability 80% or more
# Shown is an unselected part of the about 2,100 reagents, under one of the conditions tested. 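Calls flag viability under 80% in either arm, not effects specific to rucaparib; the reference for percent is not stated.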 Unmarked entries are inactive. Some reagents were tested in more than one well and are listed for each. The record does not give: the 100% reference.
Gene,technical replicate,"viability, normalised (%)"
DRD1,1,53.9 (active)
DRD1,2,48.9 (active)
DRD1,3,50.4 (active)
TIMM50,1,58.8 (active)
TIMM50,2,58.2 (active)
TIMM50,3,35.9 (active)
GRB10,1,46.4 (active)
GRB10,2,54.2 (active)
GRB10,3,67.1 (active)
NQO2,1,69.8 (active)
NQO2,2,66.5 (active)
NQO2,3,65.4 (active)
UBE2V2,1,31.2 (active)
UBE2V2,2,38.7 (active)
UBE2V2,3,44.2 (active)
DYRK3,1,54.8 (active)
DYRK3,2,64.5 (active)
DYRK3,3,59.2 (active)
SQLE,1,72.7 (active)
SQLE,2,61.9 (active)
SQLE,3,73 (active)
HMGN3,1,52.6 (active)
HMGN3,2,44.3 (active)
HMGN3,3,59.4 (active)
DMC1,1,42 (active)
DMC1,2,48.3 (active)
DMC1,3,47.7 (active)
MYO6,1,47.6 (active)
MYO6,2,36.5 (active)
MYO6,3,40.1 (active)
NTRK2,1,63.9 (active)
NTRK2,2,74.9 (active)
NTRK2,3,61 (active)
HP1BP3,1,41.4 (active)
HP1BP3,2,42 (active)
HP1BP3,3,48.1 (active)
CDCA8,1,56.7 (active)
CDCA8,2,56.3 (active)
CDCA8,3,36.7 (active)
CRY2,1,45.4 (active)
CRY2,2,55.5 (active)
CRY2,3,56.4 (active)
DAP3,1,51.8 (active)
DAP3,2,46.3 (active)
DAP3,3,49.6 (active)

Next part; the last 6 above are carried over.
Gene,technical replicate,"viability, normalised (%)"
CRY2,1,45.4 (active)
CRY2,2,55.5 (active)
CRY2,3,56.4 (active)
DAP3,1,51.8 (active)
DAP3,2,46.3 (active)
DAP3,3,49.6 (active)
VRK3,1,55.7 (active)
VRK3,1,77.7 (active)
VRK3,2,83.4
VRK3,2,55.9 (active)
VRK3,3,86.7
VRK3,3,69.2 (active)
MAP2K3,1,43.6 (active)
MAP2K3,1,49.6 (active)
MAP2K3,2,66.4 (active)
MAP2K3,2,49.5 (active)
MAP2K3,3,55 (active)
MAP2K3,3,63.7 (active)
PDE9A,1,79.8 (active)
PDE9A,2,49.4 (active)
PDE9A,3,57.8 (active)
TDRD12,1,53.2 (active)
TDRD12,2,47.7 (active)
TDRD12,3,40.3 (active)
CHAF1B,1,36.8 (active)
CHAF1B,1,70.3 (active)
CHAF1B,2,32.7 (active)
CHAF1B,2,63 (active)
CHAF1B,3,35.7 (active)
CHAF1B,3,54.7 (active)
PKD2L2,1,68.8 (active)
PKD2L2,2,60.4 (active)
PKD2L2,3,69.3 (active)
CSNK1A1,1,50.6 (active)
CSNK1A1,2,37.2 (active)
CSNK1A1,3,62.6 (active)
